Our source for the Kd values is patent publication EP3546476A1 (Repligen Corporation, dated 2019).

As usually defined, the Kd is the concentration at which binding is half-saturated.

This assay has as its target T1, Panitumomab (IgG2).
T1 construct: Used as the IgG2 sample; also called Panitumumab
Put plainly: SPR, Biacore 3000, CM5 chip, 25 °C, Langmuir 1:1 model.

B1: cs14 (designed binder)
chain: IAAKHDKDQQAAFYEILHLPNLTEDQRNAFIQSLRDDPSVSLEILGEAKKLNDAQAPPWSHPQFEK
In turn, B1 had a Kd of 7.42 nM.
